The record followed here is the supplement of paper PMC12823440, “Inhibitors supercharge kinase turnover through native proteolytic circuits” (Nature, 2025).

Protein sequences, listed by entry. Tags and fused reporters are not part of them. Lines headed by an entry give the natural chain unless they say otherwise; changes in a name come on top.
UniProt Q15208: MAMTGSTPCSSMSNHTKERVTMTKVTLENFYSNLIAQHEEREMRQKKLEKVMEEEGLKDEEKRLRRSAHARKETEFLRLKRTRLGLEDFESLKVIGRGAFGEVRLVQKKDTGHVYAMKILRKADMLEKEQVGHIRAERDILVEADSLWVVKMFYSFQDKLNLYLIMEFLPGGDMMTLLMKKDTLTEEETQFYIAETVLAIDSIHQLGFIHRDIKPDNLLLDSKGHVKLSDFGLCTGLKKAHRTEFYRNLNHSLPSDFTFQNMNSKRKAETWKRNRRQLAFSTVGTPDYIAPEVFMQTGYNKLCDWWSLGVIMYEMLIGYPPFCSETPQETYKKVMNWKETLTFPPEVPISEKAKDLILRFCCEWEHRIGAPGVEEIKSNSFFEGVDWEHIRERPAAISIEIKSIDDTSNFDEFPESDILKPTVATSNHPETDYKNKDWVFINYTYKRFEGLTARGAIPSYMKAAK
UniProt P42680: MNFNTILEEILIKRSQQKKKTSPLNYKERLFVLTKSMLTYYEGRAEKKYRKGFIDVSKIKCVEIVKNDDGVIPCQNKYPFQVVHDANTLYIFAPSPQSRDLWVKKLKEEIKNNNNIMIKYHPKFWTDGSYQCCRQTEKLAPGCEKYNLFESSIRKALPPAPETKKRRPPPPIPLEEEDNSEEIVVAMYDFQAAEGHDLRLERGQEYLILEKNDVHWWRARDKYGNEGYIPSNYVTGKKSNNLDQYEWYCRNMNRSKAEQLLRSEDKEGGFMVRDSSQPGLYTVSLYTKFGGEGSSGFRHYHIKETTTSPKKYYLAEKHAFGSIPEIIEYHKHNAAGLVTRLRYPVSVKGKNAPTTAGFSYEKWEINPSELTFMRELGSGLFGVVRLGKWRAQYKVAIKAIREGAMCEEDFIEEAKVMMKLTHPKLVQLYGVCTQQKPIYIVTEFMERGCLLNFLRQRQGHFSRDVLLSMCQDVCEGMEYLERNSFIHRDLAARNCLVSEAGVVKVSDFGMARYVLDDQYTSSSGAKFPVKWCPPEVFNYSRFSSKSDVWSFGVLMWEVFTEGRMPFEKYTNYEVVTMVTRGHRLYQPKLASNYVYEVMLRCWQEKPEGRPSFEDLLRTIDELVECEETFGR
UniProt P07947, whole entry, looked up: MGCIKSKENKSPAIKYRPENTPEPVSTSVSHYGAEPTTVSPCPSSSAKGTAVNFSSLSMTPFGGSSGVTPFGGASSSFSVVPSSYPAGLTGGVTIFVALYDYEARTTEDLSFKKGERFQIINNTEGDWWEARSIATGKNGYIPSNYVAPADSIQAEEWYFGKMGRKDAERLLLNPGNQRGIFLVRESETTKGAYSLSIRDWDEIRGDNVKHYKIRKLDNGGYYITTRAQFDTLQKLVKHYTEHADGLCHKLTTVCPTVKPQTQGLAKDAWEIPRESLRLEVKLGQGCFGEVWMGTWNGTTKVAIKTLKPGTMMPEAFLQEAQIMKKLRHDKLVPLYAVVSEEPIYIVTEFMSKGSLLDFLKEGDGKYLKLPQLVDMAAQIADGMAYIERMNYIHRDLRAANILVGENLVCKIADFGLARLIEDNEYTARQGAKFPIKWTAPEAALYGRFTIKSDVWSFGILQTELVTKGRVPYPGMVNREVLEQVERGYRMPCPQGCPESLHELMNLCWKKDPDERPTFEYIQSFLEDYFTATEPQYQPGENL
UniProt P43403: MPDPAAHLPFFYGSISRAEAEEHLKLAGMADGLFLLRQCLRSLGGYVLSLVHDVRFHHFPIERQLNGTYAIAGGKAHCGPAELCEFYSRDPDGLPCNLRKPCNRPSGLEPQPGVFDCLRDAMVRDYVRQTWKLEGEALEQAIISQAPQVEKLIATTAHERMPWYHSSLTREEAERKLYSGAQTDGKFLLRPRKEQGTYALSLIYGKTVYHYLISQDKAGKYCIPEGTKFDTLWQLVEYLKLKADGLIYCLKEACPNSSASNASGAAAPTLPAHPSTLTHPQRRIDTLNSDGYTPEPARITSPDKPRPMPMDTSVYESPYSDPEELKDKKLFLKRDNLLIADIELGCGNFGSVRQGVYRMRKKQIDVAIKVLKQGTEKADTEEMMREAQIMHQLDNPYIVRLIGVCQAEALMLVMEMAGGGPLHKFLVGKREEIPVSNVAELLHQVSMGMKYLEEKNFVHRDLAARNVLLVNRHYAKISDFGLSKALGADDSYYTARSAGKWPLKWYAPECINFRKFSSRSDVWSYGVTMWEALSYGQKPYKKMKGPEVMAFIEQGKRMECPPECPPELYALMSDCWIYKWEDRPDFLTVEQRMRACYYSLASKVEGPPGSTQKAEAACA
UniProt P00519, whole entry: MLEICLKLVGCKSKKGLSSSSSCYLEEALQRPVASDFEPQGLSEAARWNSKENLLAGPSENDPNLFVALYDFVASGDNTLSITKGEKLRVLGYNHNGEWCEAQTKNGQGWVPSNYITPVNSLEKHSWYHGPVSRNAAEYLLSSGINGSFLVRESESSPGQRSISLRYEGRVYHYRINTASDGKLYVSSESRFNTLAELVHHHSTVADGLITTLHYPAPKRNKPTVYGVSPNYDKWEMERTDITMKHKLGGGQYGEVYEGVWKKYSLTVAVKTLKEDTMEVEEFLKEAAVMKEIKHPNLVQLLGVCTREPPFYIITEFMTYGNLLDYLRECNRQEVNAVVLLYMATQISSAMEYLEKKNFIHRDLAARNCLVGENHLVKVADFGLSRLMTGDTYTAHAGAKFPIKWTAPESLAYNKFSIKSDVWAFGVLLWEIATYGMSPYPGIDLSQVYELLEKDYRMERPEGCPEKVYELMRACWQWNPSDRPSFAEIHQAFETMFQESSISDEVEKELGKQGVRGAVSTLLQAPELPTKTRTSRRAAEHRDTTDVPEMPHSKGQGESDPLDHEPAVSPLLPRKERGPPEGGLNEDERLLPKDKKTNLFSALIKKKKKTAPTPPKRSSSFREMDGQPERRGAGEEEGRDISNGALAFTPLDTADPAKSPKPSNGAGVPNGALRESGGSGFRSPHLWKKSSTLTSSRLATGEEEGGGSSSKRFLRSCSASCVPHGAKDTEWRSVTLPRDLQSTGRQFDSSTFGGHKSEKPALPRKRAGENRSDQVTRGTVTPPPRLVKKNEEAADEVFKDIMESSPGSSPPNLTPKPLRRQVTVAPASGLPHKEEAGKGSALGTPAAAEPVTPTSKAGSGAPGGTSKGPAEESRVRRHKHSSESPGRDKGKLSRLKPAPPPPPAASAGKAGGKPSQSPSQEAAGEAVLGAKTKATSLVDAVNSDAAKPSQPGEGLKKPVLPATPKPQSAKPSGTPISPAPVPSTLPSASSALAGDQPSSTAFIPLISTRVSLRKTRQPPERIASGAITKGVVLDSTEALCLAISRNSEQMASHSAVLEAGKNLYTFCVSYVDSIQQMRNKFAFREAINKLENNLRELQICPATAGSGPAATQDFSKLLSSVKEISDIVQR
UniProt P10398: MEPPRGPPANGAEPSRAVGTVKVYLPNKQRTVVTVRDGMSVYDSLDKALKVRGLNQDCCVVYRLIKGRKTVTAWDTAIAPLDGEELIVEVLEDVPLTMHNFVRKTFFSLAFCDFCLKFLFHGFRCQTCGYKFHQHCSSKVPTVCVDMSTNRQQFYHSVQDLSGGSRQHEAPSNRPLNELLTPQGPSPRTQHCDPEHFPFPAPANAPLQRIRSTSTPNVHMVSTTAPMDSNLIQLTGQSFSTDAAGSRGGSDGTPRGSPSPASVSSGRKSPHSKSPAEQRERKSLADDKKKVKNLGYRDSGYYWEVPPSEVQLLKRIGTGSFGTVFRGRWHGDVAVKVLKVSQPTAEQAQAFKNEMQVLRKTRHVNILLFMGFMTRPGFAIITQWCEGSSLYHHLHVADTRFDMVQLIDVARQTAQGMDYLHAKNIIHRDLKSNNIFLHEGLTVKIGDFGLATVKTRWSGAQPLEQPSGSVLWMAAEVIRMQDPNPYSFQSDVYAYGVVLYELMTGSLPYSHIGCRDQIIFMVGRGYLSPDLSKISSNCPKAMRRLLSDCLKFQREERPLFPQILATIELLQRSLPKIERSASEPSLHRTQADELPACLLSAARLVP
UniProt O14965: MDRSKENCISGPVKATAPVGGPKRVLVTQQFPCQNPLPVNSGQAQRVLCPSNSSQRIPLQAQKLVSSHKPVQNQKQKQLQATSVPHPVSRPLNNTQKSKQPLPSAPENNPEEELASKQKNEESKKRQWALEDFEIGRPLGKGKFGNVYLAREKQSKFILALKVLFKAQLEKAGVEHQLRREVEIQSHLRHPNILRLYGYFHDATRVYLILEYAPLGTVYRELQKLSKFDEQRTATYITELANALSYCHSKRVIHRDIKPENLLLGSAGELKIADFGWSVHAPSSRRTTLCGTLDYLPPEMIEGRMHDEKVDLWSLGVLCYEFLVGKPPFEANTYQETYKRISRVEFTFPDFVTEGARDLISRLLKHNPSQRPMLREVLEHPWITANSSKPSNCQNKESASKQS
UniProt P51813: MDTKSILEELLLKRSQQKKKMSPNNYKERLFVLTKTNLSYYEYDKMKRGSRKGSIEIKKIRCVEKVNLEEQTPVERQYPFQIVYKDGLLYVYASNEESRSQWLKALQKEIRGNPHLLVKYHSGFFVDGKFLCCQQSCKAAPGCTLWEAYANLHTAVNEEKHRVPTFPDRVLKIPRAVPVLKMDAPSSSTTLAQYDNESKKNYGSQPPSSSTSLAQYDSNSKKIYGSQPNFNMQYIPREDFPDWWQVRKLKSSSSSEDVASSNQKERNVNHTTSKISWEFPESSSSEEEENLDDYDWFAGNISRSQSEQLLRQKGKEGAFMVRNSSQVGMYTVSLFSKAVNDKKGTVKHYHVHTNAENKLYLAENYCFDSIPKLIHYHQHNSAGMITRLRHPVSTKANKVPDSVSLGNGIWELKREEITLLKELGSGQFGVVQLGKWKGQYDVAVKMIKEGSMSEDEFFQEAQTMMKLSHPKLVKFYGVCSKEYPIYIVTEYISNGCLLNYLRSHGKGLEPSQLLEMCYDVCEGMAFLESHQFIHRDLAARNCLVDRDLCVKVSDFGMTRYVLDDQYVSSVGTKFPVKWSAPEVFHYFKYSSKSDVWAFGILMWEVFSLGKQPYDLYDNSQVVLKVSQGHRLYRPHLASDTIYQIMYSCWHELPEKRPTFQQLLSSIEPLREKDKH
UniProt P15056, whole entry, looked up: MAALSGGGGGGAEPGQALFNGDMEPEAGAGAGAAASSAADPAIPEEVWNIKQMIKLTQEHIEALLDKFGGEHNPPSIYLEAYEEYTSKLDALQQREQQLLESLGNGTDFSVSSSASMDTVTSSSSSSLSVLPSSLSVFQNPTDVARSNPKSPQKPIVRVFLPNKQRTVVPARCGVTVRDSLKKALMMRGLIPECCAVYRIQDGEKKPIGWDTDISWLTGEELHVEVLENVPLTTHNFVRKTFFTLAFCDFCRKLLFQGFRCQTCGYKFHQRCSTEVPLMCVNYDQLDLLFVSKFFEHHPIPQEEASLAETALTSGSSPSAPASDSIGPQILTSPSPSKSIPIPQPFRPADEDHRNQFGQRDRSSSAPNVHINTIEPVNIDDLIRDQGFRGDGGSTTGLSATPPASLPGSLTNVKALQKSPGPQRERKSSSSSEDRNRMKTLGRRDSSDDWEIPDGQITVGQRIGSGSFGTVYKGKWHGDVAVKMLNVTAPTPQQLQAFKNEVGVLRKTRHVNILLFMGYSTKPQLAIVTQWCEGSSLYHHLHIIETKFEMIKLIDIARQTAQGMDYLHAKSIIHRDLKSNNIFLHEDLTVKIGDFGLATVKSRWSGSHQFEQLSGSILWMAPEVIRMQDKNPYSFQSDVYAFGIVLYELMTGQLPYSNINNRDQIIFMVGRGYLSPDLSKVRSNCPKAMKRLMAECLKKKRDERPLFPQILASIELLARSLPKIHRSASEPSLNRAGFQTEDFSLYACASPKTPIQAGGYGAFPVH
UniProt Q06187: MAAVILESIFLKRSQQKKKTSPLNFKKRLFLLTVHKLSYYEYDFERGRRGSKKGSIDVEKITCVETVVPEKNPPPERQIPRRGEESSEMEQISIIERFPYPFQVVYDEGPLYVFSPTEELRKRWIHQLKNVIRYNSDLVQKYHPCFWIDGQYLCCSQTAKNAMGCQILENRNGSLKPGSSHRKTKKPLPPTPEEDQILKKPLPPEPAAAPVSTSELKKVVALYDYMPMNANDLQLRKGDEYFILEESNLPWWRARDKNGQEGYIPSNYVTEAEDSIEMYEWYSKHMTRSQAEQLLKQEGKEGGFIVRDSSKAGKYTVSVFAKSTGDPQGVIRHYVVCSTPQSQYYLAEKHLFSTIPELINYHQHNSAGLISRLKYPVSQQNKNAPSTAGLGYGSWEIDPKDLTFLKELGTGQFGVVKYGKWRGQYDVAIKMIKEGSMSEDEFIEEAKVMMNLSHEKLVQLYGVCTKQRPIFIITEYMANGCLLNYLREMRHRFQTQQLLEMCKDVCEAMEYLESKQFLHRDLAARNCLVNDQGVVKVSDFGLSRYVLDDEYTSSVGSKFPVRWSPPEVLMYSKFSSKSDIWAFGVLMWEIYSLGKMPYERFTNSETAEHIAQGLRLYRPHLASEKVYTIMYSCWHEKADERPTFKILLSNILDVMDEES

This is one part of the list. Hit calls seldom repeat between salt and free forms of one compound.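 Kinases, fused to nanoluciferase, were expressed in K562 cells; luminescence was measured every 4 h from 2 to 18 h as percent of control (DMSO = 100%, positive control = 0%). A time point is decreased if signal falls significantly (2 sigma). Hits were called by the authors by a rule that is not shown; the count of time points alone does not decide it.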

Common to all, as to settings: K562; 2-18 h
In one test the target is STK38 (UniProt Q15208). The experiment in a line: kinase-Nluc reporter destabilization hit call (1 = scored as downregulated) (binary); higher = compound decreases kinase abundance.
In another test the target is SYK (UniProt P43405). The description is as above.
The target of a further test is TEC (UniProt P42680). The test is described as above.
The target in the next test is TYK2 (UniProt P29597). Described as above.
In the next test the target is ULK3 (UniProt Q6PHR2). Described as above.
In the next test the target is YES1 (UniProt P07947). The description is as above.
The target in the next test is ZAK (UniProt Q9NYL2). The description is as above.
In another test the target is ZAP70 (UniProt P43403). Described as above.
Another test concerns the target ABL1 (UniProt P00519). The experiment in a line: number of time points (of 5) at which kinase-Nluc abundance scored as decreased, DMSO-normalised (count); higher = more persistent destabilization.
A further test deals with AKT1 (UniProt P31749). The description is as above.
A further test has as its target ALK (UniProt Q9UM73). Described as above.
In the next test the target is ARAF (UniProt P10398). The test is described as above.
The next test deals with AURKA (UniProt O14965). The test is described as above.
The next test addresses AURKB (UniProt Q96GD4). The description is as above.
Another test concerns the target AURKC (UniProt Q9UQB9). The test is described as above.
In a further test the target is BLK (UniProt P51451). The test is described as above.
A further test addresses BMX (UniProt P51813). Described as above.
The target of the next test is BRAF (UniProt P15056). Described as above.
Another test deals with BRAF_V600E. The test is described as above.
The next test deals with BTK (UniProt Q06187). The test is described as above.

For the compound `CC(C)(C)Cc1[nH]nc2c1[C@@](C)(c1ccccc1)C1=C(CC(C)(C)CC1=O)N2` (10 µM), the “kinase-Nluc reporter destabilization hit call” value with STK38, with SYK, with TEC, in the test with TYK2, with ULK3 and with YES1 was inactive: 0 throughout. For the same compound, the “kinase-Nluc reporter destabilization hit call” value in the test with ZAK and with ZAP70 was inactive: 0 in each case. In addition, the “number of time points” value with ABL1, in the test with AKT1, with ALK, with ARAF, in the test with AURKA and with AURKB was 0 in each case. Further, the “number of time points” value with AURKC, with BLK, with BMX, with BRAF, in the test on BRAF_V600E and with BTK was 0 each time.

With `c1nn(C2CCOCC2)cc1Nc1ncc2nnn(-c3ccc4cn[nH]c4c3)c2n1` (10 µM), the “kinase-Nluc reporter destabilization hit call” value in the test with STK38, with SYK, with TEC, with TYK2, in the test with ULK3 and with YES1 was inactive: 0 throughout. Further, the “kinase-Nluc reporter destabilization hit call” value with ZAK and in the test with ZAP70 was inactive: 0 throughout. Moreover, the “number of time points” value with ABL1, with AKT1, with ALK, in the test with ARAF, with AURKA and in the test with AURKB was 0 throughout. The “number of time points” value in the test with AURKC, with BLK, with BMX, with BRAF, in the test with BRAF_V600E and with BTK was 0 in each case.

As to `Cc1nc[nH]c1CN1CCN(C(=O)N[C@@H](CC(C)C)C(=O)O)[C@@H](Cc2ccccc2)C1=O` (10 µM), the “kinase-Nluc reporter destabilization hit call” value with STK38, in the test with SYK, with TEC, in the test with TYK2, with ULK3 and with YES1 was inactive: 0 each time. In addition, the “kinase-Nluc reporter destabilization hit call” value with ZAK and with ZAP70 was inactive: 0 each time. Besides, the “number of time points” value with ABL1, with AKT1, with ALK, with ARAF, with AURKA and in the test with AURKB was 0 each time. In addition, the “number of time points” value with AURKC, with BLK, in the test with BMX, with BRAF, in the test on BRAF_V600E and with BTK was 0 throughout.

Regarding `O=C1OC(/C=C/c2ccccc2)=NC/1=C\c1cccnc1` (10 µM), the “kinase-Nluc reporter destabilization hit call” value with STK38, with SYK, with TEC, in the test with TYK2, with ULK3 and in the test with YES1 was inactive: 0 throughout. The “kinase-Nluc reporter destabilization hit call” value with ZAK and in the test with ZAP70 was inactive: 0 in each case. Further, the “number of time points” value in the test with ABL1, with AKT1, with ALK, in the test with ARAF, with AURKA and in the test with AURKB was 0 each time. Moreover, the “number of time points” value with AURKC, with BLK, with BMX, with BRAF, in the test on BRAF_V600E and with BTK was 0 each time.

On to `Cc1c(C)c(NCC(=O)N(C)C2CCN(Cc3ccc(C(N)=O)cc3)CC2)c(C)c(C)c1N` (10 µM), for which the “kinase-Nluc reporter destabilization hit call” value with STK38, with SYK, with TEC, with TYK2, with ULK3 and with YES1 was inactive: 0 each time. Besides, the “kinase-Nluc reporter destabilization hit call” value in the test with ZAK and with ZAP70 was inactive: 0 throughout. Also, the “number of time points” value in the test with ABL1, with AKT1, with ALK, in the test with ARAF, in the test with AURKA and with AURKB was 0 each time. Further, the “number of time points” value with AURKC, with BLK, with BMX, in the test with BRAF, with BRAF_V600E and with BTK was 0 each time.
